Values quoted from earlier work, collected in patent US20060069049A1, “Methods and reagents related to foxo” (President and Fellows of Harvard College, priority 2003, published 2006).
At least one structure is not confirmed: it was looked up by name or label, or the drawing left a doubt.

Legend:
atrogin-1 = conditions: reported from Sacheck et al. (manuscript submitted) or Li et al. 2003a; cited from earlier work
C2C12 myotubes [1] = conditions: literature (Rommel et al. 2001; Bodine et al. 2001b; Pallafacchina et al. 2002), in culture or in vivo; cited from earlier work
C2C12 myotubes [2] = conditions: Sacheck et al. manuscript submitted; cited from earlier work

Compound | effect on atrogin-1 expression in myotubes (atrogin-1) | induction of myotube or muscle atrophy (C2C12 myotubes [1]) | effect on overall rates of proteolysis (C2C12 myotubes [2])
O=c1cc(N2CCOCC2)oc2c(-c3ccccc3)cccc12 [LY 294002] | stimulates atrogin-1 expression | leads to atrophic myotubes | –
C[C@@H]1C[C@H]2[C@@H]3CCC4=CC(=O)C=C[C@]4(C)[C@@]3(F)[C@@H](O)C[C@]2(C)[C@@]1(O)C(=O)CO [dexamethasone, reference compound] | – | – | increases overall rates of proteolysis
CO[C@H]1C[C@@H]2CC[C@@H](C)[C@@](O)(O2)C(=O)C(=O)N2CCCC[C@H]2C(=O)O[C@H]([C@H](C)C[C@@H]2CC[C@@H](O)[C@H](OC)C2)CC(=O)[C@H](C)/C=C(\C)[C@@H](O)[C@@H](OC)C(=O)[C@H](C)C[C@H](C)/C=C/C=C/C=C/1C [rapamycin] | small induction of atrogin-1 | does not induce atrophy | –
